Measured values reported in PubChem BioAssay AID540256 (National Center for Advancing Translational Sciences (NCATS), 2011).
Values joined by “and” are separate entries in the source; they are usually repeats but may differ in a detail not shown here. Equal values may be shown once. Among all 300,000 compounds or so, about 3,700 (1.2%) were called active. Inconclusive means that the source gave no clear call. Such entries were picked first, then a sample of the others. The call rests on the fitted dose curve; tested in HEK293 cells. Potencies of inconclusive entries are doubtful fits and often do not repeat.

Assay: qHTS for Inhibitors of binding or entry into cells for Lassa Virus; further: nearly all actives have a fitted effect of over 50% in size
Conditions: Lassa virus pseudotype entry inhibition, cell reporter; activity change, negative = inhibition: at 37.9 µM (top of the series) unless noted
On the % scale 0 is the no-effect control and ±100 the full control effect; potency means the concentration at half of the fitted maximal effect.

Row | SMILES | activity change, negative = inhibition | Potency
1 | FC(F)(F)c1nc(SCc2ccc(Cl)cc2Cl)n[nH]1 | inactive: -25.4% | 
2 | Cc1ccc(OP(=O)(NCc2ccccc2)Oc2ccc(C)cc2)cc1 |  | inconclusive: 20.6 µM [inhibitor, partial curve, poor fit]
3 | COC(=O)c1cc(-c2c[nH]c3ccccc23)n[nH]1 | inactive: -3.67% | 
4 | O=Cc1ccccc1OCCOc1ccccc1C=O |  | inconclusive: 14.6 µM [inhibitor, partial curve, poor fit]
5 | Cc1c(/C(O)=C2/C(=O)C(=O)N(Cc3cccnc3)C2c2ccccn2)cnn1-c1ccccc1 (stereo not given) | inactive: -13% | 
6 | Cc1cc(C(=O)NNC(=O)c2ccc(C)c([N+](=O)[O-])c2)c(C)o1 | inactive: -9.24% | 
7 | COC(=O)c1c(NC(=O)c2cccc([N+](=O)[O-])c2)sc(C(N)=O)c1C |  | inconclusive: 1.78 µM [inhibitor, partial curve, poor fit]
8 | CCC(C)NC(=O)c1cccc(NC(=O)c2nsc3ccccc23)c1 (stereo not given) |  | inconclusive: 2.51 µM [activator, single point]
9 | COc1ccc2nc(SCc3ccccc3C)nc(C)c2c1 | inactive: 10.6% | 
10 | Cc1ccc(N(CC(=O)Nc2ccccc2-c2ccccc2)S(=O)(=O)c2ccccc2)cc1 |  | inconclusive: 22.4 µM [inhibitor, single point]
11 | COC(=O)c1sccc1NC(=O)c1c(F)c(F)c(F)c(F)c1F |  | inconclusive: 11.2 µM [inhibitor, partial curve, poor fit]
12 | O=C(Nc1ccc(S(=O)(=O)Nc2nccs2)cc1)c1cc(-c2ccccc2Cl)nc2ccccc12 |  | inconclusive: 20 µM [inhibitor, single point]
13 | COc1ccc(NC(=O)c2ccc(CN3CCN(c4ccccc4)CC3)cc2)cc1OC |  | inconclusive: 11.2 µM [inhibitor, partial curve]
14 | S=C(Nc1ccccc1)Nc1cc(Cl)ccc1Oc1ccccc1 | inactive: -27.9% | 
15 | Cc1cc(OCCOCCN2CCCC2)ccc1C(C)C |  | inconclusive: 29.1 µM [inhibitor, single point]
16 | CC(C)CCCn1c(O)c(/C=C2/C=CC=N2)c(=O)[nH]c1=O |  | inconclusive: 8.2 µM [inhibitor, partial curve]
17 | COc1cc(C=c2c3ccccc3n3c2cc(-c2ccccc2)[n+]3C)cc(OC)c1OC |  | active: 14.1 µM
18 | CCCNC(=O)Cn1nc(-c2ccc(F)cc2)c2cnc3ccc(F)cc3c21 |  | inconclusive: 2.82 µM [inhibitor, single point]
19 | Cc1ccc(N2C(=O)NC(=O)/C(=C\C=C\c3ccco3)C2=O)cc1C |  | inconclusive: 8.2 µM [inhibitor, partial curve]
20 | Cc1cc(C)n2cnnc2n1 |  | inconclusive: 2.82 µM [activator, single point]
21 | COc1ccc(/C=C/C(=O)Nc2ccccc2C(=O)O)cc1OC |  | active: 20.6 µM and active: 1.3 µM
22 | O=C(Nc1ccc(N2CCN(C(=O)c3ccco3)CC2)c(Cl)c1)c1c(F)c(F)c(F)c(F)c1F |  | inconclusive: 22.4 µM [inhibitor, single point]

Record cards (already shown):
Cc1ccc(N(CC(=O)Nc2ccccc2-c2ccccc2)S(=O)(=O)c2ccccc2)cc1 reads Potency: inconclusive: 22.4 µM [inhibitor, single point]
CC(C)CCCn1c(O)c(/C=C2/C=CC=N2)c(=O)[nH]c1=O reads Potency: inconclusive: 8.2 µM [inhibitor, partial curve]

(list continues)

Row | SMILES | activity change, negative = inhibition | Potency
23 | COc1cccc(OC)c1C(=O)NNC(=O)c1cccc(COc2ccc3c(c2)CCC3)c1 |  | inconclusive: 12.6 µM [inhibitor, single point]
24 | Cc1ccc2c(c1)cc(C(=O)NCc1ccccc1)n2C |  | inconclusive: 0.631 µM [inhibitor, full curve, poor fit]
25 | COc1ccccc1NC(=O)CSC1=Nc2ccccc2C2=NC(CCC(=O)NCc3cccs3)C(=O)N12 (stereo not given) |  | inconclusive: 35.5 µM [activator, single point]
26 | C[N+]1(C)CCOC(O)(c2ccc(-c3ccc(C4(O)C[N+](C)(C)CCO4)cc3)cc2)C1 (stereo not given) |  | inconclusive: 5.17 µM [inhibitor, single point]
27 | NS(=O)(=O)c1ccc(CNC(=O)C(c2ccccc2)c2ccccc2)cc1 |  | inconclusive: 22.4 µM [inhibitor, single point]
28 | O=C(COC(=O)C12CC3CC(CC(O)(C3)C1)C2)Nc1cccc(Br)c1 | inactive: 12.2% | 
29 | CCOc1ccc(-c2nnn(CC(=O)NCc3ccc(OC)cc3)n2)cc1OCC |  | inconclusive: 20.6 µM [inhibitor, partial curve, poor fit]
30 | CC(Oc1cccc(NC(=O)c2cccs2)c1)C(=O)c1ccccc1 (stereo not given) |  | inconclusive: 35.5 µM [inhibitor, single point]
31 | O=C(NCc1ccccc1)N(Cc1cc2cc3c(cc2[nH]c1=O)OCCO3)CC1CCCO1 (stereo not given) | inactive: -16.5% | 
32 | Cc1c(N=Cc2ccncc2)c(=O)n(-c2ccccc2)n1C |  | inconclusive: 0.126 µM [inhibitor, full curve, poor fit]
33 | CCOc1ccc(CCNC(=O)c2ccc(CS(=O)Cc3cccc(Cl)c3)o2)cc1 (stereo not given) |  | inconclusive: 35.5 µM [inhibitor, single point]
34 | Cn1ncc(Cl)c1C(=O)Nc1ccncc1 | inactive: -1.04% | 
35 | Cc1ccc(NC(=O)c2c(C)oc3nc(C)nc(N4CCCC4)c23)c(C)c1 |  | inconclusive: 35.5 µM [activator, single point]
36 | CC(Sc1cn(CCNC(=O)c2ccccc2F)c2ccccc12)c1ccccc1 (stereo not given) |  | inconclusive: 7.94 µM [inhibitor, partial curve, poor fit]
37 | CN(C)Cc1c(O)ccc2c(=O)c(-c3ccccc3Cl)coc12 |  | inconclusive: 35.5 µM [inhibitor, single point]
38 | O=C(NCc1cccnc1)/C(=C\c1ccc(-c2cccc(Cl)c2)o1)S(=O)(=O)c1ccccc1 |  | inconclusive: 12.6 µM [inhibitor, partial curve, poor fit]
39 | CCCc1c(-c2ccc(O)cc2)nn(-c2ccc(O)cc2)c1-c1ccc(O)cc1 |  | active: 0.291 µM
40 | Cc1c(Cl)c([N+](=O)[O-])nn1Cc1ccc(C(=O)N/N=C\c2ccccn2)o1 | inactive: 4.56% | 
41 | COc1ccc(C(=O)COC(=O)c2ccco2)cc1 |  | inconclusive: 20 µM [activator, single point]
42 | Cc1ccc(C)c(OCC(=O)Nc2ccc(S(=O)(=O)Nc3onc(C)c3C)cc2)c1C |  | inconclusive: 22.4 µM [activator, partial curve, poor fit]
43 | O=C(Nc1ccccc1N1CCN(c2ccc(F)cc2)CC1)C12CC3CC(CC(C3)C1)C2 |  | inconclusive: 9.2 µM [inhibitor, partial curve]
44 | CCNC(=O)NS(=O)(=O)c1cnccc1Nc1cccc(Cl)c1 |  | inconclusive: 6.51 µM [inhibitor, single point]

Row | SMILES | activity change, negative = inhibition | Potency
45 | Cc1c(NC(=O)C(C)(C)Oc2ccc(Cl)cc2)cccc1-c1nc2ncccc2o1 |  | inconclusive: 22.4 µM [inhibitor, partial curve, poor fit]
46 | Oc1c(Cl)cc(Cl)c(Cl)c1Cc1c(O)c(Cl)cc(Cl)c1Cl |  | inconclusive: 23.1 µM [inhibitor, partial curve, poor fit]
47 | O=C(CSc1nnc(CCCN2C(=O)c3cccc4cccc(c34)C2=O)n1-c1ccccc1)NCCCO | inactive: -0.405% | 
48 | Cc1ccc(C)c(Cn2nnc3c(=O)[nH]c(C4CCN(C(=O)c5ccco5)CC4)nc32)c1 |  | inconclusive: 1 µM [inhibitor, full curve, poor fit]
49 | O=C(COc1ccccc1Cl)N(Cc1cccs1)C1CCS(=O)(=O)C1 (stereo not given) |  | active: 0.501 µM
50 | Cc1onc(-c2ccccc2)c1C(=O)Nc1cccnc1 |  | inconclusive: 0.891 µM [inhibitor, partial curve, poor fit]
51 | COCC(=O)OC/C(O)=C(\C#N)c1nc2ccccc2[nH]1 |  | inconclusive: 12.6 µM [inhibitor, partial curve]
52 | C[C@@H](C(=O)NCc1ccccn1)[C@H]1C[C@]1(C)[C@H](NC(=O)OCc1ccccc1)c1ccccc1 |  | inconclusive: 29.1 µM [inhibitor, single point]
53 | COC(=O)C(C)n1nnc2sc(-c3ccccc3)cc2c1=O (stereo not given) |  | inconclusive: 1.58 µM [activator, partial curve, poor fit]
54 | Cc1nc2cc(C(=O)OCC(=O)NC(C)C(C)C)ccc2n1-c1ccccc1 (stereo not given) |  | active: 8.2 µM
55 | COC(=O)c1sccc1S(=O)(=O)N(CC(=O)Nc1c(C)cccc1C)c1ccc(C)c(C)c1 |  | inconclusive: 14.1 µM [inhibitor, partial curve, poor fit]
56 | COc1ccc(S(=O)(=O)N2CCCC2)cc1OC | inactive: 16.2% [at 46.1 µM] | 
57 | COc1ccc2c(c1)c(=O)c(S(=O)(=O)c1ccc(C)cc1)cn2Cc1ccccc1C |  | inconclusive: 10 µM [inhibitor, partial curve, poor fit]
58 | CCOC(=O)c1c(NC(=O)C2COc3ccccc3O2)sc2c1CC(C)(C)NC2(C)C (stereo not given) |  | inconclusive: 29.1 µM [inhibitor, single point]
59 | O=C(CCS(=O)(=O)c1cc(Br)cc2c1N(C(=O)C1CC1)CC2)NCc1ccccc1Cl | inactive: 15.8% [at 46.1 µM] | 
60 | O=C1CSC(=S)N1N=Cc1ccc(Cl)cc1Cl | inactive: 14.3% | 
61 | Cc1c(NC(=O)c2cccc3c(Cl)cccc23)cccc1-c1nc2ccccc2o1 |  | inconclusive: 5.62 µM [inhibitor, single point]
62 | CCN(CC(=O)NCc1ccc(Cl)cc1)C(=O)c1cc(S(=O)(=O)NCc2ccccc2)ccc1C | inactive: -18.9% | 
63 | CCCCCCCCC(=O)N/N=C/c1ccccn1 |  | inconclusive: 29.1 µM [inhibitor, single point]
64 | O=C(NC1(C(F)(F)F)NC(=O)N(Cc2ccco2)C1=O)c1cccs1 (stereo not given) |  | inconclusive: 20.6 µM [activator, partial curve, poor fit]
65 | O=C(CSc1nnc(CNC(=O)c2ccccc2)o1)NCCc1ccccc1 |  | inconclusive: 35.5 µM [inhibitor, single point]

Quoted from the listing.
O=C1CSC(=S)N1N=Cc1ccc(Cl)cc1Cl | activity change, negative = inhibition: inactive: 14.3%
CCN(CC(=O)NCc1ccc(Cl)cc1)C(=O)c1cc(S(=O)(=O)NCc2ccccc2)ccc1C | activity change, negative = inhibition: inactive: -18.9%
